{"source": "PubChem BioAssay AID1224827 (NIAID, 2016)", "assay": "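Identify regulators of the macrophage TNF-alpha response to bacterial LPS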 (follow-up of hits)", "system": "RAW264.7 G9 mouse macrophage reporter clone", "reagent": "single siRNA against mouse genes, 100 nM siRNA", "time to read-out": "siRNA for 2 days, then LPS about 16 h", "challenge": "bacterial lipopolysaccharide (LPS), 10 ng/ml, cells fixed after overnight (about 16 h) stimulation", "measured": "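Imaged nuclear TNF reporter intensity, background removed, scaled per plate and to non-targeting control wells, as z-scores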", "reading the numbers": "TNF reporter z-score, mean: higher = stronger Tnf promoter reporter signal", "active means": "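Active siRNA: replicate-mean z-score of 2 or more, or -2 or less; no calls for control wells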", "note": "This is one part, drawn at random, of about 3,800 reagents. About 2,200 of all reagents (57%) count as active. 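Active means a strong reporter change in either direction; calls are per siRNA, not per gene; qiagen siRNAs gave weaker effects.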 The numbers tell different reagents against one gene apart. Not all columns of the deposit are shown."}
{"gene":"Stradb","siRNA no.":1,"TNF reporter z-score, mean":3.69,"outcome":"active"}
{"gene":"Stradb","siRNA no.":2,"TNF reporter z-score, mean":-0.56,"outcome":"inactive"}
{"gene":"Stradb","siRNA no.":3,"TNF reporter z-score, mean":-2.11,"outcome":"active"}
{"gene":"Stradb","siRNA no.":4,"TNF reporter z-score, mean":5.17,"outcome":"active"}
{"gene":"Stradb","siRNA no.":5,"TNF reporter z-score, mean":3.46,"outcome":"active"}
{"gene":"Stradb","siRNA no.":6,"TNF reporter z-score, mean":-1.05,"outcome":"inactive"}
{"gene":"Zfp418","siRNA no.":1,"TNF reporter z-score, mean":-1.19,"outcome":"inactive"}
{"gene":"Zfp418","siRNA no.":2,"TNF reporter z-score, mean":-2.01,"outcome":"active"}
{"gene":"Zfp418","siRNA no.":3,"TNF reporter z-score, mean":-2.63,"outcome":"active"}
{"gene":"Zfp418","siRNA no.":4,"TNF reporter z-score, mean":4.14,"outcome":"active"}
{"gene":"Zfp418","siRNA no.":5,"TNF reporter z-score, mean":1.34,"outcome":"inactive"}
{"gene":"Zfp418","siRNA no.":6,"TNF reporter z-score, mean":2.82,"outcome":"active"}
{"gene":"Pcolce2","siRNA no.":1,"TNF reporter z-score, mean":0.512,"outcome":"inactive"}
{"gene":"Pcolce2","siRNA no.":2,"TNF reporter z-score, mean":-0.418,"outcome":"inactive"}
{"gene":"Pcolce2","siRNA no.":3,"TNF reporter z-score, mean":-1.48,"outcome":"inactive"}
{"gene":"Pcolce2","siRNA no.":4,"TNF reporter z-score, mean":-0.148,"outcome":"inactive"}
{"gene":"Pcolce2","siRNA no.":5,"TNF reporter z-score, mean":-0.502,"outcome":"inactive"}
{"gene":"Pcolce2","siRNA no.":6,"TNF reporter z-score, mean":-1.44,"outcome":"inactive"}
{"gene":"Med25","siRNA no.":1,"TNF reporter z-score, mean":2.61,"outcome":"active"}
{"gene":"Med25","siRNA no.":2,"TNF reporter z-score, mean":-0.651,"outcome":"inactive"}
{"gene":"Med25","siRNA no.":3,"TNF reporter z-score, mean":-1.9,"outcome":"inactive"}
{"gene":"Med25","siRNA no.":4,"TNF reporter z-score, mean":-0.837,"outcome":"inactive"}
{"gene":"Med25","siRNA no.":5,"TNF reporter z-score, mean":-2.07,"outcome":"active"}
{"gene":"Med25","siRNA no.":6,"TNF reporter z-score, mean":-2.98,"outcome":"active"}
{"gene":"Il1r1","siRNA no.":1,"TNF reporter z-score, mean":-3.15,"outcome":"active"}
{"gene":"Il1r1","siRNA no.":2,"TNF reporter z-score, mean":-4.31,"outcome":"active"}
{"gene":"Il1r1","siRNA no.":3,"TNF reporter z-score, mean":-4.33,"outcome":"active"}
{"gene":"Il1r1","siRNA no.":4,"TNF reporter z-score, mean":1.63,"outcome":"inactive"}
{"gene":"Il1r1","siRNA no.":5,"TNF reporter z-score, mean":-1.61,"outcome":"inactive"}
{"gene":"Il1r1","siRNA no.":6,"TNF reporter z-score, mean":-3.11,"outcome":"active"}
{"gene":"Tpr","siRNA no.":1,"TNF reporter z-score, mean":-4.01,"outcome":"active"}
{"gene":"Tpr","siRNA no.":2,"TNF reporter z-score, mean":-5.28,"outcome":"active"}
{"gene":"Tpr","siRNA no.":3,"TNF reporter z-score, mean":-5.35,"outcome":"active"}
{"gene":"Tpr","siRNA no.":4,"TNF reporter z-score, mean":1.14,"outcome":"inactive"}
{"gene":"Tpr","siRNA no.":5,"TNF reporter z-score, mean":0.25,"outcome":"inactive"}
{"gene":"Tpr","siRNA no.":6,"TNF reporter z-score, mean":-1.43,"outcome":"inactive"}

Laid out differently: 6 of the entries above
gene | siRNA no. | TNF reporter z-score, mean | outcome
Zfp418 | 2 | -2.01 | active
Zfp418 | 3 | -2.63 | active
Zfp418 | 4 | 4.14 | active
Zfp418 | 5 | 1.34 | inactive
Zfp418 | 6 | 2.82 | active
Pcolce2 | 1 | 0.512 | inactive
